Here are results for 1 substance from article PMC8572226.

By UniProt entry, the sequences of proteins in these tests, tags left out. Residues count along the entry.
UniProt P63158: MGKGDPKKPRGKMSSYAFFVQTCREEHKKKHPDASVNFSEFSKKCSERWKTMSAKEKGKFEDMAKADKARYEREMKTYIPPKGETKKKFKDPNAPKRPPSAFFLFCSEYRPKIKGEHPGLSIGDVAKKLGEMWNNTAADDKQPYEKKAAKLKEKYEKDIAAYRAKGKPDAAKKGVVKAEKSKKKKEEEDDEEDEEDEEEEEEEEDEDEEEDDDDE
UniProt Q62151, residues 23-402: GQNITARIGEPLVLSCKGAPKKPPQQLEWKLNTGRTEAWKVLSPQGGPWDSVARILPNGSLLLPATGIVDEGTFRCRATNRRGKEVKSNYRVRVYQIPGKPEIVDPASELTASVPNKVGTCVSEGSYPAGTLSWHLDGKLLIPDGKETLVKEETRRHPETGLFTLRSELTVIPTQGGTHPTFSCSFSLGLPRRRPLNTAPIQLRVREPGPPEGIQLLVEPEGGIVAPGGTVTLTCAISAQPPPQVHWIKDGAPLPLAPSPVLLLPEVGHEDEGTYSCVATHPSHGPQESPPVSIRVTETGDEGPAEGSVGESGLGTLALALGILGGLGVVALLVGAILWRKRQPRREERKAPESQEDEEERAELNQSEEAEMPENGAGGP

In assay [1] the target is High mobility group box protein 1 (mouse (endogenous in Raw264.7)) (UniProt P63158). In words: co-IP; Raw264.7 cells with LPS and the RAGE inhibitor FPS-ZM1; endogenous proteins.
The target is the same in assay [2]. In words: co-IP; Raw264.7 cells stimulated with 100 ng/ml LPS for 24 h; IP with anti-HMGB1, immunoblot; endogenous proteins. (In general: In western blotting, separated proteins are transferred to a membrane and probed.)

No constants are given. Whether binding was seen depends on the method and setting. In cells and extracts the contact can be indirect. Some results given as binding are weak or reduced against the parent protein; the word gives no strength.

“receptor for advanced glycation end-products (from UniProt Q62151 23-402)”: the binding result in assay [1] is listed as “no binding (condition: with FPS-ZM1 (RAGE inhibitor))”; in assay [2], “binds”.
